For at least one compound, name, drawing or mass did not settle the structure. Residues, ends and D or L forms follow the SMILES beside them. *: point of attachment. Fluorescein(5-NHCOCH2) = O=C(C*)Nc1ccc2c(c1)C(=O)OC21c2ccc(O)cc2Oc2cc(O)ccc21
Experiments:
[1] = molecular target: c-Src SH3 domain-GST fusion protein (Gallus gallus, UniProt P00523); assay: Fluorescence polarization direct binding assay, c-Src SH3; parameters: species or system chicken; conditions: 50 nM fluorescently labeled ligand, PBS pH 7.4
Experimental: (§1) Polarization was measured by excitation with vertically polarized light at 485 nm and the fluorescence emission detected at 530 nm in both the vertical and horizontal directions. An average of five measurements were recorded for each well. Samples were equilibrated at room temperature for 25 min before analysis, a time sufficient for the binding reactions to reach equilibrium. The polarization data were fit using Kaleidagraph v3.6 software to Eq. 5, which is derived from first principles without assumptions. […] In this equation, Pobs is the observed polarization value at any given concentration of target protein (GST•SH3 domain). Pmin is the polarization of peptide^Flu at 50 nM in the absence of target protein. Pmax is the maximum polarization of peptide^Flu at saturation with target protein. Kd is the equilibrium dissociation constant. […] Free fits are shown. Kd values were estimated as described.

c-Src SH3^P133L = c-Src SH3^P133L (Gallus gallus, UniProt P00523, P133L); assay: Fluorescence polarization direct binding assay, c-Src SH3^P133L; parameters: species or system chicken; conditions: 50 nM fluorescently labeled ligand; lower limit estimated
Experimental: as §1

Compound | Kd [1] [µM] | Kd (c-Src SH3^P133L) [µM]
CC[C@H](C)[C@H](NC(=O)[C@H](CC(C)C)NC(=O)[C@H](CC(=O)O)NC(=O)[C@H](CCC(=O)O)NC(=O)[C@@H](NC(=O)[C@@H]1CCCN1C(=O)[C@H](C)NC(=O)[C@H](CC(=O)O)NC(=O)[C@H](CC(=O)O)NC(=O)CNC(=O)[C@@H]1CCCN1C(=O)[C@H](CC(N)=O)NC(=O)[C@H](CCCNC(=N)N)NC(=O)[C@@H]1CCCN1C(=O)[C@@H]1CCCN1C(=O)[C@H](CC(C)C)NC(=O)[C@@H]1CCCN1C(=O)[C@@H]1CCCN1C(=O)[C@H](C)N)C(C)C)C(=O)N[C@@H](CCCNC(=N)N)C(=O)N[C@@H](Cc1ccccc1)C(=O)N[C@@H](Cc1ccc(O)cc1)C(=O)N[C@@H](CC(=O)O)C(=O)N[C@@H](CC(N)=O)C(=O)N[C@@H](CC(C)C)C(=O)N[C@@H](CCC(N)=O)C(=O)N[C@@H](CCC(N)=O)C(=O)N[C@@H](Cc1ccc(O)cc1)C(=O)N[C@@H](CC(C)C)C(=O)N[C@@H](CC(N)=O)C(=O)N[C@H](C(=O)N[C@H](C(=O)N[C@H](C(=O)N[C@@H](CCCNC(=N)N)C(=O)N[C@@H](Cc1c[nH]cn1)C(=O)N[C@@H](CCCNC(=N)N)C(=O)N[C@@H](Cc1ccc(O)cc1)C(=O)N[C@@H](CSCC(=O)Nc1ccc2c(c1)C(=O)OC21c2ccc(O)cc2Oc2cc(O)ccc21)C(N)=O)[C@@H](C)O)C(C)C)C(C)C [PP1^Flu] (H-APPLPPRNPGDDAPVEDLIRFYDNLQQYLNVVTRHRYC(Fluorescein(5-NHCOCH2))-NH2) | 3.68 ± 0.06 | > 55
CC[C@H](C)[C@H](NC(=O)[C@H](CC(C)C)NC(=O)[C@H](CC(=O)O)NC(=O)[C@H](CCC(=O)O)NC(=O)[C@@H](NC(=O)[C@@H]1CCCN1C(=O)[C@H](C)NC(=O)[C@H](CC(=O)O)NC(=O)[C@H](CC(=O)O)NC(=O)CNC(=O)[C@H](CCCNC(=N)N)NC(=O)[C@H](CC(N)=O)NC(=O)[C@H](CCCNC(=N)N)NC(=O)[C@@H]1CCCN1C(=O)[C@@H]1CCCN1C(=O)[C@H](CC(C)C)NC(=O)[C@@H]1CCCN1C(=O)[C@@H]1CCCN1C(=O)[C@H](C)N)C(C)C)C(=O)N[C@@H](CCCNC(=N)N)C(=O)N[C@@H](Cc1ccccc1)C(=O)N[C@@H](Cc1ccc(O)cc1)C(=O)N[C@@H](CC(=O)O)C(=O)N[C@@H](CC(N)=O)C(=O)N[C@@H](CC(C)C)C(=O)N[C@@H](CCC(N)=O)C(=O)N[C@@H](CCC(N)=O)C(=O)N[C@@H](Cc1ccc(O)cc1)C(=O)N[C@@H](CC(C)C)C(=O)N[C@@H](CC(N)=O)C(=O)N[C@H](C(=O)N[C@H](C(=O)N[C@H](C(=O)N[C@@H](CCCNC(=N)N)C(=O)N[C@@H](Cc1c[nH]cn1)C(=O)N[C@@H](CCCNC(=N)N)C(=O)N[C@@H](Cc1ccc(O)cc1)C(=O)N[C@@H](CSCC(=O)Nc1ccc2c(c1)C(=O)OC21c2ccc(O)cc2Oc2cc(O)ccc21)C(N)=O)[C@@H](C)O)C(C)C)C(C)C [PP2^Flu] (H-APPLPPRNRGDDAPVEDLIRFYDNLQQYLNVVTRHRYC(Fluorescein(5-NHCOCH2))-NH2) | 1.3 ± 0.2 | > 24
CC[C@H](C)[C@H](NC(=O)[C@H](CC(C)C)NC(=O)[C@H](CC(=O)O)NC(=O)[C@H](CCC(=O)O)NC(=O)[C@@H](NC(=O)[C@@H]1CCCN1C(=O)[C@H](C)NC(=O)[C@H](CC(=O)O)NC(=O)[C@H](CCCNC(=N)N)NC(=O)[C@@H]1CCCN1C(=O)[C@H](CCCNC(=N)N)NC(=O)[C@H](CC(N)=O)NC(=O)[C@H](CCCNC(=N)N)NC(=O)[C@@H]1CCCN1C(=O)[C@@H]1CCCN1C(=O)[C@H](CC(C)C)NC(=O)[C@@H]1CCCN1C(=O)[C@@H]1CCCN1C(=O)[C@H](C)N)C(C)C)C(=O)N[C@@H](CCCNC(=N)N)C(=O)N[C@@H](Cc1ccccc1)C(=O)N[C@@H](Cc1ccc(O)cc1)C(=O)N[C@@H](CC(=O)O)C(=O)N[C@@H](CC(N)=O)C(=O)N[C@@H](CC(C)C)C(=O)N[C@@H](CCC(N)=O)C(=O)N[C@@H](CCC(N)=O)C(=O)N[C@@H](Cc1ccc(O)cc1)C(=O)N[C@@H](CC(C)C)C(=O)N[C@@H](CC(N)=O)C(=O)N[C@H](C(=O)N[C@H](C(=O)N[C@H](C(=O)N[C@@H](CCCNC(=N)N)C(=O)N[C@@H](Cc1c[nH]cn1)C(=O)N[C@@H](CCCNC(=N)N)C(=O)N[C@@H](Cc1ccc(O)cc1)C(=O)N[C@@H](CSCC(=O)Nc1ccc2c(c1)C(=O)OC21c2ccc(O)cc2Oc2cc(O)ccc21)C(N)=O)[C@@H](C)O)C(C)C)C(C)C [PP3^Flu] (H-APPLPPRNRPRDAPVEDLIRFYDNLQQYLNVVTRHRYC(Fluorescein(5-NHCOCH2))-NH2) | 0.35 ± 0.04 | > 60
